Reference: PubChem BioAssay AID1458 (National Center for Advancing Translational Sciences (NCATS), 2008)
About 5,900 (2.8%) of roughly 210,000 compounds were called active. About 5% were inconclusive and are not listed. The call rests on the fitted dose curve; in most records, active means well fitted activation curve with a large enough effect; inconclusive means small, poorly fitted or top-dose-only effect; inactive means no such curve, though single readings can be large or run the other way. Only a part is listed here, and it is no random draw. Where no call is shown, the source filed none.

Assay: qHTS Assay for Enhancers of SMN2 Splice Variant Expression; further: nearly all actives have a fitted effect of over 55% in size; on activity change, positive = activation: % of control where 0% means no effect
Settings: HEK293 SMN2-luciferase splicing reporter, luminescence, 30-36 h; activity change, positive = activation: at 46.1 µM (top of the series) unless noted
Summary of the method: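 HEK293 cells carry an SMN2 […]–luciferase reporter in which exon 7 inclusion puts luciferase in frame. Cells were plated 10-12 h before compound addition, then incubated 30-36 h at 37C. ONE-Glo luminescence was read; sodium butyrate at 4.5 mM final served as control.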
Potency means the concentration at half of the fitted maximal effect.

With Cc1ccc2nc(-c3ccccc3)c(NC(=O)c3ccco3)n2c1 as the compound, how does the “activity change, positive = activation” value read?
The value was inactive: -12.3%.

For O=C(N/N=C/c1ccccn1)c1cccs1, which “activity change, positive = activation” value is on record?
Its value is inactive: -44.9%.

Which activity change, positive = activation does the source give for Cc1cc(NC(=O)CSc2ccc3ccccc3c2)no1 here?
The activity change, positive = activation was 36.3%.

With Cc1ccccc1NC(=S)N(CCN1CCOCC1)Cc1ccccc1F as the compound, how does the activity change, positive = activation read?
Its activity change, positive = activation is 12.8%.

With COc1ccc(C(=O)NC(C(=O)N2CCc3ccccc32)C(C)C)cc1 (stereo not given) as the compound, how does the activity change, positive = activation read?
Its activity change, positive = activation is 72%.

With O=C(O)C1C2CCC(C2)C1C(=O)Nc1nc2ccccc2s1 (stereo not given) as the compound, how does the activity change, positive = activation read?
The activity change, positive = activation was 39.4%.

With NC(=O)C1CCN(C(=O)c2cc(S(=O)(=O)N3CCOCC3)c(Cl)cc2Cl)CC1 as the compound, how does the activity change, positive = activation read?
Its activity change, positive = activation is 55.3%.

For O=C(c1cc(Sc2ccc(Cl)cc2)nc2ccccc12)N1CCN(c2ccccn2)CC1, which “activity change, positive = activation” value is on record?
The value was inactive: -39.3%.

For CCNC(=S)N/N=C/c1sc(N2CCCCC2)nc1-c1cccs1, which activity change, positive = activation is on record?
Its activity change, positive = activation is 7.37%.

With Cc1cc(C)c(S(=O)(=O)N2CCCCC2)c(C)c1N(C)S(=O)(=O)c1ccc(Cl)cc1 as the compound, how does the “activity change, positive = activation” value read?
Its value is inactive: -37.2%.

For O=C(Nc1cc(C(=O)N2CCCC2)ccc1N1CCCC1)c1ccccc1F, which activity change, positive = activation is on record?
The activity change, positive = activation was 35.8%.

With COC(=O)C1CCN(C(=O)CCCOc2ccccc2)CC1 as the compound, how does the activity change, positive = activation read?
Its activity change, positive = activation is 43.3%.

With Cc1ccc(NC(=O)Nc2ccccc2)c(Br)c1 as the compound, how does the Potency read?
Its Potency is active: 12.6 µM.

With CCC1CSC(Nc2ccc(C(=O)/C=C/c3ccc(OC)c(OC)c3)cc2)=N1 (stereo not given) as the compound, how does the “activity change, positive = activation” value read?
Its value is inactive: -59.3%.

For CC(C)(C)c1ccc(S(=O)(=O)N(CCCN2CCOCC2)Cc2cccs2)cc1, which activity change, positive = activation is on record?
The activity change, positive = activation was -83%.

For COc1ccc(-c2cn3cc(C(F)(F)F)cc(Cl)c3n2)cc1, which Potency is on record?
The Potency was active: 2.82 µM.

With COC(=O)c1[nH]c2ccc(C)cc2c1NC(=O)CN1CCN(c2ccccc2)CC1 as the compound, how does the “activity change, positive = activation” value read?
Its value is inactive: -78.4%.

With Cc1ccccc1C(=O)Nc1ccccc1 as the compound, how does the activity change, positive = activation read?
Its activity change, positive = activation is 34.9%.

For CN(C)C=NC(=O)c1ccc([N+](=O)[O-])c(CS(=O)(=O)c2ccc(Cl)cc2)c1, which activity change, positive = activation is on record?
The activity change, positive = activation was -38.7%.

With O=C1C2C3C=CC(C2C(=O)N1C1CCCCC1)C1C2C(=O)N(C4CCCCC4)C(=O)C2C31 (stereo not given) as the compound, how does the “activity change, positive = activation” value read?
Its value is inactive: -34.8%.

For Nc1ccc(-c2nc3ccc(C(=O)O)cc3s2)cc1, which activity change, positive = activation is on record?
The activity change, positive = activation was -58.6%.

For CCn1c(C)cc(=S)c2ccccc21, which activity change, positive = activation is on record?
Its activity change, positive = activation is 32.8%.

With COC(=O)N1CCN(c2ccc(C(C)=O)cc2)CC1 as the compound, how does the activity change, positive = activation read?
Its activity change, positive = activation is 30.9%.

Which activity change, positive = activation does the source give for COc1ccc(-c2nnc(SCC(=O)N3CCc4ccccc4C3)o2)cc1 here?
The activity change, positive = activation was -63.7%.

With CCN(CC)S(=O)(=O)c1ccc(NC(=O)c2ccc3c(=O)n4c(nc3c2)CCCCC4)cc1 as the compound, how does the “activity change, positive = activation” value read?
The value was inactive: -64.8%.

For O=C1CC(c2ccncc2)c2cc3c(cc2N1)OCCO3 (stereo not given), which activity change, positive = activation is on record?
Its activity change, positive = activation is 38.8%.

Which activity change, positive = activation does the source give for N#Cc1nc(N2CCCCC2)nc(N2CCOCC2)n1 here?
The activity change, positive = activation was -63.9%.

Which activity change, positive = activation does the source give for CC(C)(C)c1ccc(/C=N/Nc2ccc(C(=O)O)cc2)cc1 here?
The activity change, positive = activation was inactive: -90.6% [at 1.84 µM].

With CCS(=O)(=O)c1c(S(=O)(=O)CC)c2cc(C(C)(C)C)ccn2c1C(=O)c1ccc(F)cc1 as the compound, how does the activity change, positive = activation read?
Its activity change, positive = activation is 20.4%.

For Cc1cc(C=C2C(=O)c3ccccc3C2=O)c(C)n1-c1ccccc1, which “activity change, positive = activation” value is on record?
Its value is inactive: -70.9%.

With Cc1cccc(-c2nnc(-c3ccc(N)cc3)o2)c1 as the compound, how does the Potency read?
Its Potency is active: 4.47 µM.

With COc1ccc(C(=O)O/N=C(/c2ccccc2)c2ccncc2)cc1 as the compound, how does the activity change, positive = activation read?
Its activity change, positive = activation is 78.9%.

For c1ccc(-c2nc(NCc3ccco3)c3ccccc3n2)nc1, which “activity change, positive = activation” value is on record?
The value was inactive: -9.83%.

For O=C(Oc1ccc2c(=O)c(Oc3ccc4ccccc4c3)coc2c1)c1cccnc1, which activity change, positive = activation is on record?
The activity change, positive = activation was -8.15%.

Which Potency does the source give for CC(C)CCOCC(=O)Nc1cccc(C(=O)O)c1 here?
The Potency was active: 14.1 µM.

Which activity change, positive = activation does the source give for Cc1c(NC(=O)C(C)NCC2CCCO2)c(=O)n(-c2ccccc2)n1C (stereo not given) here?
The activity change, positive = activation was 47.1%.

With Cc1ccc(S(=O)(=O)c2c(C)nn(C(C)(C)C)c2OC(=O)c2ccc(Br)o2)cc1 as the compound, how does the “activity change, positive = activation” value read?
Its value is inactive: -70.4%.

With CCOCc1c(C(=O)Nc2cc(OCC)c(N3CCOCC3)cc2OCC)oc2ccccc12 as the compound, how does the “activity change, positive = activation” value read?
Its value is inactive: -59.3%.

Which Potency does the source give for CC1=Nn2c(nc3sc4c(c3c2=O)CCCC4)SC1 here?
Its Potency is active: 10 µM.

For Cc1ccc(C(c2c(C)n(C)n(-c3ccccc3)c2=O)c2c(C)n(C)n(-c3ccccc3)c2=O)s1, which “activity change, positive = activation” value is on record?
Its value is inactive: -30.9%.

With CN(C)c1ccc(NC(=S)c2ccccn2)cc1 as the compound, how does the Potency read?
Its Potency is active: 0.501 µM.

With Clc1ccc(-c2noc(CSc3nnc(-c4ccncc4)n3-c3ccccc3)n2)cc1 as the compound, how does the activity change, positive = activation read?
The activity change, positive = activation was -66.7%.

For CCCCN(CCCC)S(=O)(=O)c1ccc(NC(=O)c2ccc([N+](=O)[O-])cc2Cl)cc1, which activity change, positive = activation is on record?
The activity change, positive = activation was -77.6%.

Which activity change, positive = activation does the source give for CCC(=O)c1ccc(OCC(O)CN(CCc2ccccc2)Cc2ccccc2)cc1 (stereo not given) here?
Its activity change, positive = activation is -51.1%.

With NNCCc1ccccc1 as the compound, how does the Potency read?
Its Potency is “inactive”.

For O=C(NCCN1CCOCC1)N1CCOCC1, which activity change, positive = activation is on record?
The activity change, positive = activation was 35.3%.

For COc1ccccc1Nc1nc(N)nc(CSc2ncccn2)n1, which activity change, positive = activation is on record?
The activity change, positive = activation was 49.5%.

With Cc1cc(O)c(C(C)C)cc1NC(=O)Cn1nc(C)c2ccccc2c1=O as the compound, how does the activity change, positive = activation read?
Its activity change, positive = activation is 37.8%.

For Nc1nc(Cn2nnc(-c3ccccc3Cl)n2)nc(N2CCOCC2)n1, which activity change, positive = activation is on record?
The activity change, positive = activation was 26.5%.

With CCOC(=O)c1c(C=O)c(C)n(Cc2ccc(Cl)cc2)c1C as the compound, how does the activity change, positive = activation read?
The activity change, positive = activation was 37.8%.

For CCc1ccc(NC(=O)N(C2CCCCC2)C(C)c2cccnc2)cc1 (stereo not given), which “activity change, positive = activation” value is on record?
Its value is inactive: -21%.

For O=C(c1ccco1)N1CCN(S(=O)(=O)c2ccc(F)cc2)CC1, which activity change, positive = activation is on record?
Its activity change, positive = activation is 38.1%.

With COCCn1c(SCC(=O)N2CCCCC2)nc2cccnc21 as the compound, how does the activity change, positive = activation read?
Its activity change, positive = activation is 29.6%.

For CCN(CC)CCN(C(=O)c1ccc(Br)s1)c1nc2cc3c(cc2s1)OCCO3, which activity change, positive = activation is on record?
Its activity change, positive = activation is -17.8%.

For CS(=O)(=O)c1cccc(NC(=O)c2ccc(Cl)c(Cl)c2)c1, which activity change, positive = activation is on record?
Its activity change, positive = activation is 51.3%.
